This note sets out measurements from PMC2648313, “Identification of Rhoptry Trafficking Determinants and Evidence for a Novel Sorting Mechanism in the Malaria Parasite Plasmodium falciparum” (PLoS Pathogens, 2009).

Chains of the proteins cited; added tags and fusions are not shown. Residues count along the entry.
UniProt Q6VVE5, residues 759-840: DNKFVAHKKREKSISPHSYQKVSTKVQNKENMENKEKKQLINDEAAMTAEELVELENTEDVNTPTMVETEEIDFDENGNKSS

In the assay the target is RAP1(57-152), RAP1(22-152) with the RAP1 rhoptry signal deleted (P. falciparum 3D7) (UniProt Q9U429). The assay is described as follows: pull-down; 100 ug His6-tagged RAP1 recombinant protein immobilised on TALON resin, incubated O/N at 4 C with purified GST-fusion proteins in pull-down buffer (50 mM Na2HPO4, 75 mM NaCl, 0.1% Triton X-100, 5 mM imidazole, pH 7.4); eluted with imidazole; Coomassie gel and immunoblot with anti-GST; both purified. Background: In western blotting, separated proteins are transferred to a membrane and probed.

Results are given in words; binding and its absence hold for the method and conditions named.

“RAMAE, RAMA-GST fusion protein representing amino acids 759-840 (from UniProt Q6VVE5 759-840) (domain or fragment)”: the binding result is “no binding”.
